From article doi:10.1101/2023.08.08.549832
No constants are given. Whether binding was seen depends on the method and setting. Binding seen in cells or lysates may run through a third protein. Binding calls can cover weak binding; strength is not graded here. Tags and fused reporters may be left off the sequences shown. Blank lines part the entries; values can stand above or below the binder they belong to.

Legend:
myc-PTCH1 (human) = experiment: co-IP
[1] = molecular target: PTCH1-eGFP (enhanced green fluorescent protein-tagged human PTCH1) (human); experiment: FRET or BRET

binding (myc-PTCH1 (human)): binds
binding [1]: binds
B1: PTCH2-FLAG (receptor, UniProt Q9Y6C5 1-1203)
chain: MTRSPPLRELPPSYTPPARTAAPQILAGSLKAPLWLRAYFQGLLFSLGCGIQRHCGKVLFLGLLAFGALALGLRMAIIETNLEQLWVEVGSRVSQELHYTKEKLGEEAAYTSQMLIQTARQEGENILTPEALGLHLQAALTASKVQVSLYGKSWDLNKICYKSGVPLIENGMIERMIEKLFPCVILTPLDCFWEGAKLQGGSAYLPGRPDIQWTNLDPEQLLEELGPFASLEGFRELLDKAQVGQAYVGRPCLHPDDLHCPPSAPNHHSRQAPNVAHELSGGCHGFSHKFMHWQEELLLGGMARDPQGELLRAEALQSTFLLMSPRQLYEHFRGDYQTHDIGWSEEQASTVLQAWQRRFVQLAQEALPENASQQIHAFSSTTLDDILHAFSEVSAARVVGGYLLMLAYACVTMLRWDCAQSQGSVGLAGVLLVALAVASGLGLCALLGITFNAATTQVLPFLALGIGVDDVFLLAHAFTEALPGTPLQERMGECLQRTGTSVVLTSINNMAAFLMAALVPIPALRAFSLQAAIVVGCTFVAVMLVFPAILSLDLRRRHCQRLDVLCCFSSPCSAQVIQILPQELGDGTVPVGIAHLTATVQAFTHCEASSQHVVTILPPQAHLVPPPSDPLGSELFSPGGSTRDLLGQEEETRQKAACKSLPCARWNLAHFARYQFAPLLLQSHAKAIVLVLFGALLGLSLYGATLVQDGLALTDVVPRGTKEHAFLSAQLRYFSLYEVALVTQGGFDYAHSQRALFDLHQRFSSLKAVLPPPATQAPRTWLHYYRNWLQGIQAAFDQDWASGRITRHSYRNGSEDGALAYKLLIQTGDAQEPLDFSQLTTRKLVDREGLIPPELFYMGLTVWVSSDPLGLAASQANFYPPPPEWLHDKYDTTGENLRIPPAQPLEFAQFPFLLRGLQKTADFVEAIEGARAACAEAGQAGVHAYPSGSPFLFWEQYLGLRRCFLLAVCILLVCTFLVCALLLLNPWTAGLIVLVLAMMTVELFGIMGFLGIKLSAIPVVILVASVGIGVEFTVHVALGFLTTQGSRNLRAAHALEHTFAPVTDGAISTLLGLLMLAGSHFDFIVRYFFAALTVLTLLGLLHGLVLLPVLLSILGPPPEVIQMYKESPEILSPPAPQGGGLRWGASSSLPQSFARVTTSMTVAIHPPPLPGAYIHPAPDEPPWSPAATSSGNLSSRGPGPATG

binding [1]: binds
B2: PTCH2-mCherry (receptor, UniProt Q9Y6C5 1-1203)
chain: B1 chain
